# Measurements: patent US12329799B2, “Peptidyl inhibitors of calcineurin-NFAT interaction” (Ohio State Innovation Foundation, priority 2018, dated 2025)
# For part of these data: Not every detail of the peptide structures is certain; ends, links or a residue may be inferred. For part of these data: For at least one compound, name, drawing or mass did not settle the structure. Starred links: 1 amine or outer side, 2 acyl side, 3 side chain; linkers in the order of their positions; H or OH if unused. Positions of bridges follow the written chain, without caps; N, C: chain ends. Non-standard residues stand in square brackets, D forms with d. Residues, ends and D or L forms follow the SMILES beside them. Chains are numbered I, II in the order given. *: point of attachment. X3 = CC1(C)SC[C@@H](C(=O)[*:2])N1[*:1]; 2Nal = N[C@@H](Cc1ccc2ccccc2c1)C(=O)O; Val(3-OH) = CC(C)(O)[C@H](N)C(=O)O; Chg = N[C@H](C(=O)O)C1CCCCC1; Tle = CC(C)(C)[C@H](N)C(=O)O; X1 = O=C(c1ccnc(Cl)c1Cl)*; AEEA = NCCOCCOCC(=O)O; βAla = NCCC(=O)O
# Columns and labels:
# [1] = target: T1, recombinant GST-CN (Homo sapiens, UniProt Q08209); experiment: FP competition binding with FITC-labeled compound 35 (15 nM) and 15 nM GST-CN; conditions: for IC50: Table 9, calcineurin binding, read-out: Affinity (nM) (IC50)
# T1 construct: made in house; host or cells: E. coli BL21
# [2] = target: T2, CN-GST (Homo sapiens, UniProt Q08209); experiment: FP competition binding, Condition E (50 nM probe, 50 nM CN-GST); conditions: Table 8
# T2 construct: made in house; host or cells: E. coli BL21
# [3] = tested on: LPS-induced TNFα and IL-6 secretion, mouse total lung macrophages; experiment: Inhibition of TNFα and IL-6 secretion by macrophage; format: cell-based; conditions: 100 nM, 1 μM, or 10 μM for 2 h, then LPS 6 h
# Protocol: Mouse total lung macrophages were obtained from 5 mice and pooled. Macrophages were pretreated with 100 nM, 1 μM, or 10 μM inhibitor for 2 h and stimulated with LPS ([…]) or PBS for 6 h. Cell supernatants were collected and analyzed for TNFα levels (FIG. 20A) or IL-6 levels (FIG. 20B) by R&D Systems TNFα ELISA kit and R&D Systems IL-6 ELISA kit.
# [4] = target: CN (Homo sapiens, UniProt Q08209); conditions: background statement on known CN inhibitor; cited from earlier work
# [5] = tested on: HCT116 cell spheroids; experiment: Cellular entry and intracellular stability by MALDI-TOF MS imaging; format: cell-based; conditions: 5 μM, 4 or 24 h
# Protocol: Intracellular Stability. HCT116 cell spheroids in RPMI-1640 medium supplemented with 10% FBS and 1% penicillin/streptomycin were treated with 5 μM CNI103 for 4 or 24 h. Spheroids were washed three times with warm DPBS, quickly frozen, embedded in a solid support and cryo-sectioned. Prior to analysis, sinapinic acid was sublimed onto individual slides, which were subsequently imaged using a Bruker ultrafleXtreme MALDI-TOF-TOF mass spectrometer. The spectra were analyzed for intact CNI103 as well as proteolytic degradation fragments of interest. The MS signal intensity data were used to generate Heatmaps, scaled relative to the most intense signal, for each time point and fragment.
# [6] = tested on: LPS-induced acute lung injury in mice; experiment: LPS-induced acute lung injury, CNI103 (intranasal and intravenous); format: in vivo, mouse
Structure (SMILES),IC50 [2] [nM],IC50 [1] [nM],secreted amounts of TNFα and IL6 [3],other results
"CC[C@H](C)[C@H](NC(=O)[C@@H](NC(=O)[C@@H](NC(=O)[C@@H](NC(=O)c1ccnc(Cl)c1Cl)C(C)(C)C)C1CCCCC1)C(C)(C)O)C(=O)N[C@H](C(=O)N[C@@H](CCC(N)=O)C(=O)N[C@@H](Cc1c[nH]cn1)C(=O)N[C@H](CC(C)C)C(=O)N[C@@H](CO)C(=O)NCCC(=O)N[C@@H](CCCCNC(=O)CC[C@@H]1NC(=O)[C@@H](CCCNC(=N)N)NC(=O)[C@H](CCCNC(=N)N)NC(=O)[C@@H](CCCNC(=N)N)NC(=O)[C@H](CCCNC(=N)N)NC(=O)[C@H](Cc2ccc3ccccc3c2)NC(=O)[C@@H](Cc2ccccc2)NC1=O)C(N)=O)[C@@H](C)O [Compound 44, (DCNA)-Tle-Chg-Bhv-Ile-Thr-Gln-His-(D-Leu)-Ser-βAla-Lys{[cyclo-(Gln-(D-Arg)-Arg-(D-Arg)-Arg-(2-Nal)-(D-Phe)]}-NH2] (I: X1-[Tle][Chg][Val(3-OH)]ITQH[dL]S[βAla]K-NH2 / II: cyclo([2Nal]R[dR]R[dR]E[dF]); amide I:11-II:6 (inferred); ring closure inferred)",–,–,–,higher potency than CNI103 [1]: ~5 fold
"CC[C@H](C)[C@H](NC(=O)[C@@H](NC(=O)c1ccnc(Cl)c1Cl)C(C)(C)C)C(=O)N[C@H](C(=O)N[C@H](C(=O)N[C@H](C(=O)N[C@@H](CCC(N)=O)C(=O)N[C@@H](Cc1c[nH]cn1)C(=O)N[C@H](CC(C)C)C(=O)N[C@@H](CO)C(=O)NCCOCCOCC(=O)N[C@@H](CCCCNC(=O)CC[C@@H]1NC(=O)[C@@H](CCCNC(=N)N)NC(=O)[C@H](CCCNC(=N)N)NC(=O)[C@@H](CCCNC(=N)N)NC(=O)[C@H](CCCNC(=N)N)NC(=O)[C@H](Cc2ccc3ccccc3c2)NC(=O)[C@@H](Cc2ccccc2)NC1=O)C(N)=O)[C@@H](C)O)[C@@H](C)CC)C(C)(C)C [CNI101, (DCNA)-Tle-Ile-Tle-Ile-Thr-Gln-His-(D-Leu)-Ser-miniPEG-Lys{[cyclo-(Gln-(D-Arg)-Arg-(D-Arg)-Arg-(2-Nal)-(D-Phe)]}-NH2] (I: X1-[Tle]I[Tle]ITQH[dL]S[AEEA]K-NH2 / II: cyclo([2Nal]R[dR]R[dR]E[dF]); amide I:11-II:6 (inferred); ring closure inferred)",184 ± 10,184,dose-dependently reduced,–
CC[C@H](C)[C@H](NC(=O)[C@@H](NC(=O)[C@@H](NC(=O)[C@@H](NC(=O)[C@@H]1CCCN1C(=O)[C@H](Cc1cnc[nH]1)NC(=O)[C@@H]1CCCN1C(=O)CN)C(C)(C)C)[C@@H](C)CC)C(C)(C)C)C(=O)N[C@H](C(=O)NCC(=O)N1[C@H](C(=O)N[C@@H](Cc2cnc[nH]2)C(=O)N[C@@H](CCC(=O)O)C(=O)N[C@@H](CCC(=O)O)C(=O)O)CSC1(C)C)[C@@H](C)O [ZIZIT-cisPro] (H-GPHP[Tle]I[Tle]ITG[X3]HEE-OH),–,–,–,Kd [4]: 2.6 nM
"CC[C@H](C)[C@H](NC(=O)[C@@H](NC(=O)c1ccnc(Cl)c1Cl)C(C)(C)C)C(=O)N[C@H](C(=O)N[C@H](C(=O)N[C@H](C(=O)N[C@@H](CCC(N)=O)C(=O)N[C@@H](Cc1c[nH]cn1)C(=O)N[C@H](CC(C)C)C(=O)N[C@@H](CO)C(=O)NCCOCCOCC(=O)N[C@@H](CCCCNC(=O)CC[C@@H]1NC(=O)[C@@H](CCCNC(=N)N)NC(=O)[C@H](CCCNC(=N)N)NC(=O)[C@@H](CCCNC(=N)N)NC(=O)[C@H](CCCNC(=N)N)NC(=O)[C@H](Cc2ccc3ccccc3c2)NC(=O)[C@@H](Cc2ccccc2)NC1=O)C(N)=O)[C@@H](C)O)[C@@H](C)CC)C(C)(C)O [CNI103, (DCNA)-Tle-Ile-Bhv-Ile-Thr-Gln-His-(D-Leu)-Ser-miniPEG-Lys{[cyclo-(Gln-(D-Arg)-Arg-(D-Arg)-Arg-(2-Nal)-(D-Phe)]}-NH2] (I: X1-[Tle]I[Val(3-OH)]ITQH[dL]S[AEEA]K-NH2 / II: cyclo([2Nal]R[dR]R[dR]E[dF]); amide I:11-II:6 (inferred); ring closure inferred)",223 ± 10,223,dose-dependently reduced,"cellular entry into spheroids [5]: entered spheroids in a time-dependent manner and accumulated in the cells; protein levels in BALF, dose response ([6]; intranasal 0.3, 1, and 3 mpk, 6 h after LPS): Dose-dependent reduction; prevention of LPS-induced cytokine production and total protein release into BALF ([6]; intranasal, 3 mg/kg, 2 h before LPS IP 10 mg/kg): highly effective; cytokine and protein levels in BALF and serum ([6]; intravenous 5 mg/kg, 4 h before LPS, 18 h): greatly reduced"
